# Measurements reported in PubChem BioAssay AID504764 (Drosophila RNAi Screening Center, 2011).
# Test: 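Genome-wide screen for regulators of Notch-driven gene expression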 (primary screen)
# System: Drosophila Kc167 cells
# Knock-down reagent: long dsRNA against Drosophila genes
# Timing: about 5 days (4 days dsRNA, then 24 h after transfection)
# Challenge: transfection of constitutively active membrane-tethered Notch lacking the extracellular domain, read 24 h later
# Read-out: 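Light from a Notch-responsive E(spl)m3 luciferase reporter under active Notch, with control-promoter and no-Notch reporter wells to normalise; raw counts from paired wells a and b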
# Reading the numbers: induced reporter light, run 1, well a and induced reporter light, run 1, well b: higher = more light from the Notch target reporter with active Notch; control promoter light, run 1, well a and control promoter light, run 1, well b: higher = more light from the viral control promoter (cell number, transfection, viability); uninduced reporter light, run 1, well a: higher = more light from the Notch target reporter without active Notch
# Rule for the call: 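Hit if the duplicate-averaged log2 ratio of induced to control-promoter light gives a plate-wise z beyond ±2, or induced to uninduced beyond ±1.8; weak-control or discordant-duplicate wells dropped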
# Meaning of the calls: active = modifier hit (raised or lowered Notch signal); inactive = not a hit
# The screen tested about 22,000 reagents; this is a random part of those with a known target gene and a result. Over the whole deposit, 403 (1.9%) got an active call. 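Unnormalised raw counts per well; ratio z-scores behind the hit calls and whether each hit raises or lowers signal are not deposited.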 Unmarked entries are inactive. Not stated in the record: the amount of reagent.
predicted target,amplicon,"induced reporter light, run 1, well a","induced reporter light, run 1, well b","control promoter light, run 1, well a","control promoter light, run 1, well b","uninduced reporter light, run 1, well a"
CG10907,DRSC09804,1.59e5,1.42e5,2.22e5,1.66e5,6800
CG14893,DRSC15015,3.51e5,4.37e5,2.64e5,3.25e5,22270
Irbp18 (Inverted repeat binding protein 18 kDa),DRSC10612,1.25e5,1.14e5,2.02e5,1.55e5,5095
l(2)34Fc (lethal (2) 34Fc),DRSC01910,1.32e5,1.46e5,1.75e5,1.82e5,12175
CG13216,DRSC06338,1.09e5,1.27e5,1.66e5,1.40e5,11810
PH4alphaNE1 (prolyl-4-hydroxylase-alpha NE1),DRSC16546,40415,47595,47690,51355,3410
CG31388,DRSC15254,1.23e5,1.55e5,84390,84760,10478
CG5597,DRSC04517,1.14e5,1.61e5,91485,1.24e5,8275
Map60 (Microtubule-associated protein 60),DRSC07464,1.35e5,1.57e5,1.37e5,1.28e5,12350
Pcmt (Protein-L-isoaspartate (D-aspartate) O-methyltransferase),DRSC12363,82180,1.29e5,97135,91280,6665
COX3 (retired record),DRSC21279,91650,1.11e5,1.17e5,1.35e5,11970
Ced-12,DRSC02840,1.84e5,1.76e5,2.00e5,2.20e5,18630
CG16736,DRSC15145,52855,54940,48090,72095,3470
Tsp42Er (Tetraspanin 42Er),DRSC06183,2.12e5,2.35e5,2.78e5,2.66e5,18955
CG10984,DRSC09817,1.23e5,86525,66895,35720,9355
EndoG (Endonuclease G),DRSC07292,1.39e5,1.51e5,1.59e5,1.51e5,12560
mRpS26 (mitochondrial ribosomal protein S26),DRSC10823,1.26e5,1.10e5,1.65e5,1.44e5,6610
Shark (SH2 ankyrin repeat kinase),DRSC07680,83565,69805,1.28e5,1.43e5,6730
CG9008,DRSC01889,1.91e5,2.64e5,1.87e5,2.14e5,15988
mthl12 (methuselah-like 12),DRSC12964,1.21e5,1.63e5,2.33e5,1.92e5,10965
Ugt49C1 (UDP-glycosyltransferase family 49 member C1),DRSC04252,41380,42105,45280,36745,2930
CG8814,DRSC00707,1.35e5,1.57e5,1.39e5,1.59e5,16390
Gpa2 (Glycoprotein hormone alpha 2),DRSC21071,1.09e5,1.15e5,91730,1.23e5,9050
CG15047,DRSC19623,1.04e5,91760,1.11e5,1.16e5,12195
orb2,DRSC10540,1.06e5,83985,61875,33360,7995
orb2,DRSC10541,1.65e5,1.62e5,1.90e5,1.91e5,6570
orb2,DRSC10542,1.26e5,1.37e5,1.12e5,70785,15335
Gr97a (Gustatory receptor 97a),DRSC13802,2.08e5,1.87e5,1.98e5,2.10e5,18305
CG10102 (retired record),DRSC05963,58280,57040,82420,73070,5165
Mrtf (Myocardin-related transcription factor),DRSC08263,11155,12178,22045,22900,3990
Mrtf (Myocardin-related transcription factor),DRSC08410,60025,47050,56280,62925,4795
Mrtf (Myocardin-related transcription factor),DRSC08411,1.08e5,1.04e5,1.77e5,1.62e5,5455
CG11560,DRSC09843,1.04e5 (active),81480,1.03e5,44310,11290
CG8611,DRSC19340,1.27e5,1.19e5,1.02e5,59275,9970
CG3663,DRSC04402,1.82e5,1.68e5,1.82e5,1.83e5,13728
"Pp1-Y1 (Protein phosphatase 1, Y-linked 1)",DRSC20896,2.45e5,1.85e5,2.96e5,2.83e5,14645
Sting,DRSC06615,2.64e5,2.25e5,2.32e5,2.61e5,21200
Tcs4 (Threonyl-carbamoyl synthesis 4),DRSC19587,1.18e5,1.07e5,80520,56830,8795
Pvr (PDGF- and VEGF-receptor related),DRSC03080,1.22e5 (active),1.11e5,44480,52125,10405
Hex-C (Hexokinase C),DRSC07079,80135,73635,1.06e5,98080,6535
Frl (Formin-like),DRSC09300,1.58e5,1.37e5,2.47e5,2.42e5,18465
Frl (Formin-like),DRSC10027,1.52e5,1.51e5,2.76e5,2.66e5,4455
Frl (Formin-like),DRSC10716,2.53e5,2.25e5,2.85e5,2.71e5,12005
Lnk,DRSC16729,1.45e5,1.61e5,2.23e5,2.00e5,12970
Taf6 (TBP-associated factor 6),DRSC11299,50110,65045,27820,33405,3025
RN-tre (Related to the N terminus of tre oncogene),DRSC07521,99075,1.07e5,1.10e5,1.19e5,8460
CG3698,DRSC11749,1.22e5,1.70e5,87400,1.01e5,9645
xmas-1 (retired record),DRSC20386,72435,72760,78355,82925,10510
fra (frazzled),DRSC07621,93100,1.07e5,1.52e5,1.79e5,10800
nAChRbeta2 (nicotinic Acetylcholine Receptor beta2),DRSC17010,73125,88600,75480,74555,7995
ppk28 (pickpocket 28),DRSC19919,41335,31110,34225,25690,3245
lic (licorne),DRSC20347,1.65e5,1.42e5,1.75e5,1.99e5,16595
Rad9,DRSC11263,95480,1.16e5,59770,71615,7930
Chi (Chip),DRSC04602,1.60e5,1.55e5,1.32e5,1.64e5,13165
CG17929,DRSC15291,2.46e5,2.26e5,2.79e5,2.68e5,20845
CG10005,DRSC14172,1.03e5,73425,72520,41730,5150
CG6724,DRSC02983,99520,1.16e5,68650,89685,15140
SPR (Sex peptide receptor),DRSC17390,88250,1.05e5,76645,80895,6240
SPR (Sex peptide receptor),DRSC17886,1.64e5,1.63e5,3.35e5,3.14e5,14045
SPR (Sex peptide receptor),DRSC18114,1.67e5,1.52e5,4.15e5,2.85e5,12060
Dpm1 (Dolichyl-phosphate mannosyltransferase subunit 1),DRSC02018,43390,22965,25580,25285,1610
CG6421,DRSC07420,85655,1.12e5,1.51e5,2.01e5,6975
Dnz1 (DNZDHHC/NEW1 zinc finger protein 11),DRSC03317,2.11e5,1.86e5,2.01e5,1.91e5,16605
RhoGAP102A (Rho GTPase activating protein at 102A),DRSC17110,60715,86615,86245,93770,6990
RhoGAP102A (Rho GTPase activating protein at 102A),DRSC17145,1.06e5,99390,1.90e5,3.47e5,9740

Reagents listed above called active (2):
predicted target,amplicon,"induced reporter light, run 1, well a","induced reporter light, run 1, well b","control promoter light, run 1, well a","control promoter light, run 1, well b","uninduced reporter light, run 1, well a"
CG11560,DRSC09843,1.04e5 (active),81480,1.03e5,44310,11290
Pvr (PDGF- and VEGF-receptor related),DRSC03080,1.22e5 (active),1.11e5,44480,52125,10405
